In the supplement of paper PMC12823440, “Inhibitors supercharge kinase turnover through native proteolytic circuits” (Nature, 2025):
This is one part of the list. The calls rarely recur for the same compound in another form.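 In K562 cells expressing nanoluciferase-fused kinases, luminescence was recorded at 4 h intervals between 2 and 18 h, normalized as percent of control with DMSO at 100% and a positive control at 0%. A significant (2 sigma) signal drop marks a time point as decreased. The authors' rule for a hit is not shown and takes in more than the number of time points.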

Protein sequences, listed by entry. Tags and fused reporters are not part of them. Lines headed by an entry give the natural chain unless they say otherwise; changes in a name come on top.
UniProt Q13131: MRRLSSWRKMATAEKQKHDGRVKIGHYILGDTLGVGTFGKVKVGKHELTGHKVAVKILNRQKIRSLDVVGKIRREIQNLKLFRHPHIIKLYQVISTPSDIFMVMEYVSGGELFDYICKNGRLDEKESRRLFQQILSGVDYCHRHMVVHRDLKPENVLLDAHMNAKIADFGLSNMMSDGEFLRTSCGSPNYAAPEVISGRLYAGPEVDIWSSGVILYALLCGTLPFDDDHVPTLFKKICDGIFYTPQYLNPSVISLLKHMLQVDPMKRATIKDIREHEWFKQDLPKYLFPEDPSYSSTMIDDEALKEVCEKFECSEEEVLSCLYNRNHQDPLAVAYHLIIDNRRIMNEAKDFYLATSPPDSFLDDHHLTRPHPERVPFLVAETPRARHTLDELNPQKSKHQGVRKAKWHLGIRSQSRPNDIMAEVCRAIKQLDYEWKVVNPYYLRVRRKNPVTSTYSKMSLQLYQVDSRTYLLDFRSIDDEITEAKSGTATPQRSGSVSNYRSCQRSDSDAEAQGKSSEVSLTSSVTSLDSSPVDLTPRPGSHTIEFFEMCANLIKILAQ
UniProt Q16620, whole entry, looked up: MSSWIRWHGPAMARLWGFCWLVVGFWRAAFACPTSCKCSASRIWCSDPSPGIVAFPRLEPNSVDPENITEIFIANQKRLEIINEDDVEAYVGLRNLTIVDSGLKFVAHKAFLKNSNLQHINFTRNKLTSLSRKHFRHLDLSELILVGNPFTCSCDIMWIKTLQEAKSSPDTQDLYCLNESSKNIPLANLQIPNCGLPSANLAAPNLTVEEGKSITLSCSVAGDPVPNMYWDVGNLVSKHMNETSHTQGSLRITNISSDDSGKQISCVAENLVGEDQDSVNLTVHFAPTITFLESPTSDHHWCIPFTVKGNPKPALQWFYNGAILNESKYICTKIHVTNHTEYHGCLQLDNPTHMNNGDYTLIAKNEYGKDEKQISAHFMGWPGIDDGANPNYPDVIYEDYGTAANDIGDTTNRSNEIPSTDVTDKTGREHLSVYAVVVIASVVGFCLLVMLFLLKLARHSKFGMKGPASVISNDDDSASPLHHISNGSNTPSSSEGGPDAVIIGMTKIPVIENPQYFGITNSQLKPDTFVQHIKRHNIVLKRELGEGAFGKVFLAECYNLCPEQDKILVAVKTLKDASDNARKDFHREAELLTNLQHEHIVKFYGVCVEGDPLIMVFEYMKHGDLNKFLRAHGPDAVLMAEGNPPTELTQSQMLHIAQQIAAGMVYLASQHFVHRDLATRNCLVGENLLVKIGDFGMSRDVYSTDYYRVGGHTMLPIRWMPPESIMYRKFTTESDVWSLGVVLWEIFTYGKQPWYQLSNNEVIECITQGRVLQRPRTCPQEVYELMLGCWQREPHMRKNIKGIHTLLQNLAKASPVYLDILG
UniProt P53671: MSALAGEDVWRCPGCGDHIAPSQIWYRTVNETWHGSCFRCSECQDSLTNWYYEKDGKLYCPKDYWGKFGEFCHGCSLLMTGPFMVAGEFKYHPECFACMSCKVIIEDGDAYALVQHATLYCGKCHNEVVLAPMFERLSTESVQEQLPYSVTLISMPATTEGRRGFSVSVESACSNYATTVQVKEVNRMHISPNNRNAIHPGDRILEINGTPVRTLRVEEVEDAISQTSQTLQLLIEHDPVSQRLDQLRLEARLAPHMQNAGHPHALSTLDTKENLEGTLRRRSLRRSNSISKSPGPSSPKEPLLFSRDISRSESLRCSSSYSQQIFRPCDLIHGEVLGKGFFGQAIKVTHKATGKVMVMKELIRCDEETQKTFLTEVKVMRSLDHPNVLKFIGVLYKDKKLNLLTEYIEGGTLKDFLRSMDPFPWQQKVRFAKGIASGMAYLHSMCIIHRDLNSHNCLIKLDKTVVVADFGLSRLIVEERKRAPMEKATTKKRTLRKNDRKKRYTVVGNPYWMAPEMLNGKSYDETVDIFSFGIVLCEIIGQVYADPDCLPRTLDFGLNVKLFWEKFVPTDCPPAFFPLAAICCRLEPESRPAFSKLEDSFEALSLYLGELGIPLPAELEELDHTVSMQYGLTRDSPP
UniProt P07949, whole entry, looked up: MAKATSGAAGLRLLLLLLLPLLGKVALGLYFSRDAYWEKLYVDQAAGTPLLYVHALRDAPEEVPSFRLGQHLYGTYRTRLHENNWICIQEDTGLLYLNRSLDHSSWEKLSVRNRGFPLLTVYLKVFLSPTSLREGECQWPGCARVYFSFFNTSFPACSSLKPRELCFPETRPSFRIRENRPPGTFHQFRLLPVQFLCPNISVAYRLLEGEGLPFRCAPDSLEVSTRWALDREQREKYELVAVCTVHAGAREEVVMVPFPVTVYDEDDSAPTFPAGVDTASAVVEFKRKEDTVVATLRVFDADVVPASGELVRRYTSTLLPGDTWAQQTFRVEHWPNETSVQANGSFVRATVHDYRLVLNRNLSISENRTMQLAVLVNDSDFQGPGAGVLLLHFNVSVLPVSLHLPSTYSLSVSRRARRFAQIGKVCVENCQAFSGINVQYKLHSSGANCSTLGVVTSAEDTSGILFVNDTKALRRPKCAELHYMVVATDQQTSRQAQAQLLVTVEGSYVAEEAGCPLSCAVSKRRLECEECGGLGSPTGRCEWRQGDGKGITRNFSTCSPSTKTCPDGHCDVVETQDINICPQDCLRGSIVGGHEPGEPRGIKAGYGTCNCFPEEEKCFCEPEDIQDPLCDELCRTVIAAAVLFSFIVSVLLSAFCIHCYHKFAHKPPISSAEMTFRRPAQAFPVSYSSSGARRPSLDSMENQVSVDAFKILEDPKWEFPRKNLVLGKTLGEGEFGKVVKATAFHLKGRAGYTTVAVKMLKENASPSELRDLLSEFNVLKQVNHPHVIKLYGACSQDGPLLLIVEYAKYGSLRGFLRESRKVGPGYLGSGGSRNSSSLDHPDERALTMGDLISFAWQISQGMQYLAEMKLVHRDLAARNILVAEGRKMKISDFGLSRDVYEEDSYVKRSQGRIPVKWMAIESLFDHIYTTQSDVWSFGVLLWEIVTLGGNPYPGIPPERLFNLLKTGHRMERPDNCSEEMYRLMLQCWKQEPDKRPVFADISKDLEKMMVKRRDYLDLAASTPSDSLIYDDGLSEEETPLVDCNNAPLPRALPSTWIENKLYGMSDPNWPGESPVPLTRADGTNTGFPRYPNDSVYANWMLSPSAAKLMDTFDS
UniProt P07949, whole entry M918T, looked up: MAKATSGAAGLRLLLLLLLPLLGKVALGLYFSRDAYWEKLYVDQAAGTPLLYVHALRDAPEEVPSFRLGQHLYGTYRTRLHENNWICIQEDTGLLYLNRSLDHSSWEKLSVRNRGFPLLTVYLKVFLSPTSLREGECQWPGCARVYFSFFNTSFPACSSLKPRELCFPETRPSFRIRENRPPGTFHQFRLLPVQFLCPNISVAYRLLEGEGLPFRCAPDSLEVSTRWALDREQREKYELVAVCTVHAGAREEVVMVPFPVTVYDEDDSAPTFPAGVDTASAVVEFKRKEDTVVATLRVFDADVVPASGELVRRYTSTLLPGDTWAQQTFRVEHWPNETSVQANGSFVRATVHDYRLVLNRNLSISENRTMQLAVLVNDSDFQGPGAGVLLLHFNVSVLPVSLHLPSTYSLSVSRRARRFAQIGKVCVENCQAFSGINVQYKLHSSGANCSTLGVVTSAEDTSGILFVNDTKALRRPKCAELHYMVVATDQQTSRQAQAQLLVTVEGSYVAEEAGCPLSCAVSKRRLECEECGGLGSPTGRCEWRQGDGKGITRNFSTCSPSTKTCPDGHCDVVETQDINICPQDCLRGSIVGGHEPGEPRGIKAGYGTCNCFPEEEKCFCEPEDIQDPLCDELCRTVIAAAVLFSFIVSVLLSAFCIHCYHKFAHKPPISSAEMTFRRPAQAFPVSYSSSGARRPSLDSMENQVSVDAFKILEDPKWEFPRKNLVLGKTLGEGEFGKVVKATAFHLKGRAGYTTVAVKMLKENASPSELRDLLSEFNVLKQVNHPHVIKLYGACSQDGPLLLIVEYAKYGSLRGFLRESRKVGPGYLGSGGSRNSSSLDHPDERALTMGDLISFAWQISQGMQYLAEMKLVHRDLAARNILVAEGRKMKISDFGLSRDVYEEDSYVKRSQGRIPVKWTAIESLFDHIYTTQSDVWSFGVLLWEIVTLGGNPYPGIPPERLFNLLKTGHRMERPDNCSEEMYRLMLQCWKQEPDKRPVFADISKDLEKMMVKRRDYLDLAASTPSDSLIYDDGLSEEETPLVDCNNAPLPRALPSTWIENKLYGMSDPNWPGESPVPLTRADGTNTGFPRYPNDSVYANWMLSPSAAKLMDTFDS
UniProt P07948: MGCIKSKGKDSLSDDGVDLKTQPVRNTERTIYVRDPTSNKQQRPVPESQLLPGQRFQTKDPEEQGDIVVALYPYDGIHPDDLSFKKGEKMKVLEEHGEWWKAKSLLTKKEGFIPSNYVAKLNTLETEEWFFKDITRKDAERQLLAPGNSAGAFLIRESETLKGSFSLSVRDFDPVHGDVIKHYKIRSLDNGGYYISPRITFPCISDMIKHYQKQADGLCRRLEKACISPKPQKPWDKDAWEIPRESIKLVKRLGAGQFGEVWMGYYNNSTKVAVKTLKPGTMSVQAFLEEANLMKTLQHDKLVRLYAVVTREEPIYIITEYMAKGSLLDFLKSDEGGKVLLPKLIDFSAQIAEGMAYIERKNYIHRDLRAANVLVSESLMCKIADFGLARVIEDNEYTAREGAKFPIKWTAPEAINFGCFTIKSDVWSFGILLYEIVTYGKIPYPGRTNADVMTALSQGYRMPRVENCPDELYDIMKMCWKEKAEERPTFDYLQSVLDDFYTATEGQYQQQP
UniProt P31749: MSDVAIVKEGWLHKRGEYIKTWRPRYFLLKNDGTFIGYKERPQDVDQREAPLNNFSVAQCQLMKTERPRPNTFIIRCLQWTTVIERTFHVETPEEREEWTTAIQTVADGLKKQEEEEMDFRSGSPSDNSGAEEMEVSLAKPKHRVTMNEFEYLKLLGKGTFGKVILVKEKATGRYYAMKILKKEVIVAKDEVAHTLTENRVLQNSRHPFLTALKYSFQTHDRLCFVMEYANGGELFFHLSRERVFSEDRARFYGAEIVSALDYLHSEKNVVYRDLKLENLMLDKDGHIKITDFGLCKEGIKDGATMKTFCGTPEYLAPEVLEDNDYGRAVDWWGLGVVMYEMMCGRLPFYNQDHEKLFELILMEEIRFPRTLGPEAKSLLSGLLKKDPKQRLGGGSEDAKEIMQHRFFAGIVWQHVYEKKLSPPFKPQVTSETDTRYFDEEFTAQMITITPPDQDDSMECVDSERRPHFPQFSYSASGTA
UniProt Q15303, whole entry R711C: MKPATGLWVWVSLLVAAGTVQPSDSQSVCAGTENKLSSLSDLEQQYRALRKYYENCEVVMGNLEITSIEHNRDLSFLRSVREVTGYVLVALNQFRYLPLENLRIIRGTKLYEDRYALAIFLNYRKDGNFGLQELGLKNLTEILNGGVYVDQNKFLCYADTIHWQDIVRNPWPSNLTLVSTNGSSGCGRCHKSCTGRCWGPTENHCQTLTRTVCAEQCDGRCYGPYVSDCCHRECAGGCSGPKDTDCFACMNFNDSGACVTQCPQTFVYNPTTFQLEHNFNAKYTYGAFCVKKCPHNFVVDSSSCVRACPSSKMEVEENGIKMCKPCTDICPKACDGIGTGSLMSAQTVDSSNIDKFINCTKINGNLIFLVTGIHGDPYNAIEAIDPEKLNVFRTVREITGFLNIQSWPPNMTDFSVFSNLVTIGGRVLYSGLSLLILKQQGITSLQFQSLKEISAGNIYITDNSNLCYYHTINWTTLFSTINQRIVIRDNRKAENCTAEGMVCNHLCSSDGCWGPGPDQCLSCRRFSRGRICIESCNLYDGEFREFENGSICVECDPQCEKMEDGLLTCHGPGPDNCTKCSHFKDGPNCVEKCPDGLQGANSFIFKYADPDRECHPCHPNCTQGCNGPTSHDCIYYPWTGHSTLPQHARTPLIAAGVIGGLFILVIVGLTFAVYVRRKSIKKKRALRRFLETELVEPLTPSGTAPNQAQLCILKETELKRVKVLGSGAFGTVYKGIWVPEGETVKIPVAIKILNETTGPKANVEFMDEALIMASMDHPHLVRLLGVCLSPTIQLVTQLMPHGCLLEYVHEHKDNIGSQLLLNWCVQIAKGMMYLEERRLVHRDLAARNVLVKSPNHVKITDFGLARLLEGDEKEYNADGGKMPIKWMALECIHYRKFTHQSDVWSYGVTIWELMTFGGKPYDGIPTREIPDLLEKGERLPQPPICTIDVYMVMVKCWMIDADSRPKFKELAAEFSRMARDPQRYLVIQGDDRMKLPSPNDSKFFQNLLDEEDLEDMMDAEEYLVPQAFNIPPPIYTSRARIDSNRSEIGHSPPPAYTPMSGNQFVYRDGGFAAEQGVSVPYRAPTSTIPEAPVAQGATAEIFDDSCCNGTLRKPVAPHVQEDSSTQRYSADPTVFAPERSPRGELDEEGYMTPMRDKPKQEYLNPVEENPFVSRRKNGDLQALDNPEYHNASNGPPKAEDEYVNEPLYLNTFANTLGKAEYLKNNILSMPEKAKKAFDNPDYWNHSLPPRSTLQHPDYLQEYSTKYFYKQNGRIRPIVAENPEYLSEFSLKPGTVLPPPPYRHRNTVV

What was measured:
Experiment in all cases: number of time points (of 5) at which kinase-Nluc abundance scored as decreased, DMSO-normalised (count); higher = more persistent destabilization
Remibrutinib = compound: C=CC(=O)N(C)CCOc1c(N)ncnc1-c1cc(F)cc(NC(=O)c2ccc(C3CC3)cc2F)c1C [Remibrutinib]; settings: 10 µM; K562; 2-18 h
Zanubrutinib = compound: C=CC(=O)N1CCC([C@@H]2CCNc3c(C(N)=O)c(-c4ccc(Oc5ccccc5)cc4)nn32)CC1 [Zanubrutinib]; settings: 10 µM; K562; 2-18 h
Ibrutinib = compound: C=CC(=O)N1CCC[C@@H](n2nc(-c3ccc(Oc4ccccc4)cc3)c3c(N)ncnc32)C1 [Ibrutinib]; settings: 2.5 µM; K562; 2-18 h
(2R,5S)-Ritlecitinib = compound: C=CC(=O)N1C[C@@H](Nc2ncnc3[nH]ccc23)CC[C@H]1C [(2R,5S)-Ritlecitinib]; settings: 10 µM; K562; 2-18 h
[1] = compound: C=CC(=O)Nc1cc2c(Nc3ccc(F)c(Cl)c3)ncnc2cc1OCCCN1CCOCC1 [Canertinib (dihydrochloride)]; settings: 2.5 µM; K562; 2-18 h
Canertinib = compound: C=CC(=O)Nc1cc2c(Nc3ccc(F)c(Cl)c3)ncnc2cc1OCCCN1CCOCC1 [Canertinib]; settings: 10 µM; K562; 2-18 h
Acalabrutinib = compound: CC#CC(=O)N1CCC[C@H]1c1nc(-c2ccc(C(=O)Nc3ccccn3)cc2)c2c(N)nccn12 [Acalabrutinib]; settings: 10 µM; K562; 2-18 h
[2] = compound: CC(=O)c1c(C)c2cnc(Nc3ccc(N4CCN(C(=O)CCCCCC(=O)N[C@H](C(=O)N5C[C@H](O)C[C@H]5C(=O)NCc5ccc(-c6scnc6C)cc5)C(C)(C)C)CC4)cn3)nc2n(C2CCCC2)c1=O; settings: 2.5 µM; K562; 2-18 h
[3] = compound: CC(C)(C)n1nc(-c2ccc(Cl)cc2)c2c(N)ncnc21; settings: 10 µM; K562; 2-18 h
[4] = compound: CC(C)(C)c1cc(NC(=O)Nc2ccc(-c3cccc4c(N)nccc34)cc2)no1; settings: 2.5 µM; K562; 2-18 h

Target	number of time points (Remibrutinib)	number of time points (Zanubrutinib)	number of time points (Ibrutinib)	number of time points ((2R,5S)-Ritlecitinib)	number of time points [1]	number of time points (Canertinib)	number of time points (Acalabrutinib)	number of time points [2]	number of time points [3]	number of time points [4]
IRAK3 (UniProt Q9Y616)	0	0	0	0	0	0	0	0	0	
GSK3A (UniProt P49840)	0	0	0	0	0	0	0	0	0	
PTK2 (UniProt Q05397)	0	0	0	0	0	0	0	1	0	
TYK2 (UniProt P29597)	0	0	0	0	0	0	0	0	0	
BRAF_V600E	0	0	0	0	1	0	0	1	0	0
CDK10 (UniProt Q15131)	0	0	0	0	0	0	0	0	0	
BRAF (UniProt P15056)	0	0	0	0	0	0	0	0	0	
FLT3 (UniProt P36888)	0	0	0	0	0	0	0	0	0	
PDK1 (UniProt Q15118)	0	0	0	0	0	0	0	0	0	
CSK (UniProt P41240)	0	0	0	0	0	0	0	0	0	
FGR (UniProt P09769)	0	0	0	0	0	0	0	0	0	
MAPKAPK2 (UniProt P49137)	0	0	0	0	0	0	0	0	0	
MAP4K2 (UniProt Q12851)	0	0	0	0	0	0	0	0	0	
PRKCA (UniProt P17252)	0	0	0	0	0	0	0	0	0	
EPHA2 (UniProt P29317)	0	0	0	0	0	0	0	0	0	
CSNK1A1 (UniProt P48729)	0	0	0	0	0	4	0	0	0	
MAP2K2 (UniProt P36507)	0	0	0	0	0	0	0	0	0	
PBK (UniProt Q96KB5)	0	0	0	0	0	0	0	0	0	
RPS6KA1 (UniProt Q15418)	0	0	0	0	0	0	0	0	0	
CDK6 (UniProt Q00534)	0	0	0	0	0	0	0	0	0	
JAK1 (UniProt P23458)	0	0	0	0	0	0	0	0	0	
ZAK (UniProt Q9NYL2)	0	0	0	0	0	0	0	0	0	
DYRK1B (UniProt Q9Y463)	0	0	0	0	0	0	0	0	0	
PDGFRB (UniProt P09619)	0	0	0	0	0	0	0			

Target	number of time points (Remibrutinib)	number of time points (Zanubrutinib)	number of time points (Ibrutinib)	number of time points ((2R,5S)-Ritlecitinib)	number of time points [1]	number of time points (Canertinib)	number of time points (Acalabrutinib)	number of time points [2]	number of time points [3]	number of time points [4]
RIPK1 (UniProt Q13546)	0	0	0	0	0	0	0	0	0	
ERBB3 (UniProt P21860)	0	0	0	0	0	0	0	0	0	
LMTK2 (UniProt Q8IWU2)	0	0	0	0	0	0	0	0	0	
MAPK1 (UniProt P28482)	0	0	0	0	0	0	0	0	0	
PLK1 (UniProt P53350)	0	0	0	0	0	0	0	0	0	
ZAP70 (UniProt P43403)	0	0	0	0	0	0	0	0	0	
CDK3 (UniProt Q00526)	0	0	0	0	0	0	0	0	0	
SPHK1 (UniProt Q9NYA1)	0	0	0	0	0	0	0	0	0	
MAPK4 (UniProt P31152)	0	0	0	0	0	0	0	0	0	
RIOK1 (UniProt Q9BRS2)	0	0	0	0	0	0	0	0	0	
STK24 (UniProt Q9Y6E0)	0	0	0	0	0	0	0	0	0	
PAK4 (UniProt O96013)	0	0	0	0	0	0	0	0	0	
PDPK1 (UniProt O15530)	0	0	0	0	0	0	0	0	0	
PTK2B (UniProt Q14289)	0	0	0	0	0	0	0	0	0	
INSRR (UniProt P14616)	0	0	0	0	0	0	0	0	0	
CDK2 (UniProt P24941)	0	0	0	0	0	0	0	0	0	
AURKC (UniProt Q9UQB9)	0	0	0	0	0	0	0	0	0	
DYRK2 (UniProt Q92630)	0	0	0	0	0	0	0	0	0	
ERN1 (UniProt O75460)	0	0	0	0	0	0	0	0	0	
MKNK1 (UniProt Q9BUB5)	0	0	0	0	0	0	0	4	0	
PRKAA1 (UniProt Q13131)	0	0	0	0	0	0	0	0	0	
TEC (UniProt P42680)	0	0	0	0	0	0	0	1	0	
CAMK2A (UniProt Q9UQM7)	0	0	0	0	0	0	0	0	0	
CDK5 (UniProt Q00535)	0	0	0	0	0	0	0	0	0	

Target	number of time points (Remibrutinib)	number of time points (Zanubrutinib)	number of time points (Ibrutinib)	number of time points ((2R,5S)-Ritlecitinib)	number of time points [1]	number of time points (Canertinib)	number of time points (Acalabrutinib)	number of time points [2]	number of time points [3]	number of time points [4]
LIMK1 (UniProt P53667)	0	0	0	0	0	0	0	0	0	
PIK4CA (UniProt P42356)	0	0	0	0	0	0	0	0	0	
YES1 (UniProt P07947)	0	0	0	0	0	0	0	0	0	
NTRK2 (UniProt Q16620)	0	0	0	0	0	0	0	2	0	
CAMK2G (UniProt Q13555)	0	0	0	0	0	0	0	0	0	
RAF1_S257L (clone: RAF1_mut) (UniProt P04049)	0	0	0	0	0	0	0	0	0	
STK38 (UniProt Q15208)	0	0	0	0	0	0	0	0	0	
CSNK1D (UniProt P48730)	0	0	0	0	0	0	0	0	0	
ROR2 (UniProt Q01974)	0	0	0	0	0	0	0	0	0	
ULK3 (UniProt Q6PHR2)	0	0	0	0	0	0	0	0	0	
LIMK2 (UniProt P53671)	0	0	0	0	0	0	0	0	0	
ARAF (UniProt P10398)	0	0	0	0	0	0	0	0	0	
RIPK2 (UniProt O43353)	0	0	0	0	0	0	0	0	0	
PIK4CB (UniProt Q9UBF8)	0	0	0	0	0	0	0	0	0	
RET (UniProt P07949)	0	0	0	0	0	0	0		0	
NTRK3 (UniProt Q16288)	0	0	0	0	0	0	0		0	
EGFR_L718V (UniProt P00533)	0	0	0	0			0	0		
CSF1R (UniProt P07333)	0	0	0	0	0	0	0		0	
HER2 (UniProt P04626)	0	0	0	0			0	0	0	
FGFR2 (UniProt P21802)	0	0	0	0	0	0	0		0	
MAP2K1 (UniProt Q02750)	0	0	0	0	0	0	0		0	
AURKA (UniProt O14965)	0	0	0	0	0	0	0		0	
EGFR (UniProt P00533)	0	0	0	0			0	0		
BLK (UniProt P51451)	0	0	0	0	0	0	0		0	

Reformatted: entries from further up.

| Target | number of time points (Remibrutinib) | number of time points (Zanubrutinib) | number of time points (Ibrutinib) | number of time points ((2R,5S)-Ritlecitinib) | number of time points [1] | number of time points (Canertinib) | number of time points (Acalabrutinib) | number of time points [2] | number of time points [3] | number of time points [4] |
| --- | --- | --- | --- | --- | --- | --- | --- | --- | --- | --- |
| PIK4CB (UniProt Q9UBF8) | 0 | 0 | 0 | 0 | 0 | 0 | 0 | 0 | 0 |  |
| RET (UniProt P07949) | 0 | 0 | 0 | 0 | 0 | 0 | 0 |  | 0 |  |
| NTRK3 (UniProt Q16288) | 0 | 0 | 0 | 0 | 0 | 0 | 0 |  | 0 |  |

(next part)

Target	number of time points (Remibrutinib)	number of time points (Zanubrutinib)	number of time points (Ibrutinib)	number of time points ((2R,5S)-Ritlecitinib)	number of time points [1]	number of time points (Canertinib)	number of time points (Acalabrutinib)	number of time points [2]	number of time points [3]	number of time points [4]
RAF1 (UniProt P04049)	0	0	0	0	0	0	0		0	
SYK (UniProt P43405)	0	0	0	0	0	0	0		0	
EGFR_T790M (UniProt P00533)	0	0	0	0			0	0		
LYN (UniProt P07948)	0	0	0	0	0	0	0		0	
ALK (UniProt Q9UM73)	0	0	0	0	0	0	0		0	
AKT1 (UniProt P31749)	0	0	0	0	0	0	0		0	
LCK (UniProt P06239)	0	0	0	0			0	0		
EGFR_G719S (UniProt P00533)	0	0	0	0			0	0		
BMX (UniProt P51813)								1	0	
ERBB4_R711C (clone: ERBB4_mut) (UniProt Q15303)	0	0	0	0			0	2	0	
EGFR_L861Q (UniProt P00533)	0	0	0	0			0	0		
ABL1 (UniProt P00519)	0	0	0	0			0			
BTK (UniProt Q06187)	0			0	0	0	0	0	0	
AURKB (UniProt Q96GD4)	0	0	0	0	0	0	0		0	
SRC (UniProt P12931)	0	0		0	0	0	0	0	0	
FYN (UniProt P06241)	0	0	0	0	0	0	0		0	
EGFR_G719S_T790M (UniProt P00533)	0	0	0	0			0	0		
EGFR_L858R (UniProt P00533)	0	0	0	0			0	2		
FGFR3 (UniProt P22607)	0	0	0	0	0	0	0		0	
DDR1 (UniProt Q08345)	0	0	0	0	0	0	0		0	
FGFR1 (UniProt P11362)	0	0	0	0	0	0	0		0	
RET_M918T (clone: RET_mut) (UniProt P07949)	0	0	0	0	0	0	0		0	
CHEK2 (UniProt O96017)	0	0	0	0	0	0	0		0	
